Laboratory results: the supplement of paper PMC10849652
The list shows a part of the results.

The chains behind the UniProt entries cited, without tags or fusion partners. Where a name states a change or a piece, a line headed by the entry shows the natural chain unless it says otherwise.
UniProt Q9BWW4: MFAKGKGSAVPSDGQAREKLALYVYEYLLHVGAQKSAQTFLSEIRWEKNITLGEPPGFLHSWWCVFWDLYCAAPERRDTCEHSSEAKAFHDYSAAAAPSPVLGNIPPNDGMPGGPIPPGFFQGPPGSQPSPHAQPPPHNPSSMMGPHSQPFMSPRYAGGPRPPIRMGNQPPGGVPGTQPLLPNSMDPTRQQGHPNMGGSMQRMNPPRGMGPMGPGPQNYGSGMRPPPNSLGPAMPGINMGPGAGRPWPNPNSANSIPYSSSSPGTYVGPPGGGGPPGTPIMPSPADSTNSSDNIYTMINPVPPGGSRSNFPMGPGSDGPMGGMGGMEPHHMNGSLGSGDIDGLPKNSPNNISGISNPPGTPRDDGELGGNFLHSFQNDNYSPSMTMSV
UniProt Q16385, whole entry, looked up: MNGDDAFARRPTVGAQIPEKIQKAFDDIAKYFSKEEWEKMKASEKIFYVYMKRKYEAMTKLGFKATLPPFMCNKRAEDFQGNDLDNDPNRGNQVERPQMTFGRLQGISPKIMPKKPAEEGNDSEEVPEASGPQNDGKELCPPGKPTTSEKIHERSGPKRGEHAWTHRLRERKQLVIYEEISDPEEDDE
UniProt P84103: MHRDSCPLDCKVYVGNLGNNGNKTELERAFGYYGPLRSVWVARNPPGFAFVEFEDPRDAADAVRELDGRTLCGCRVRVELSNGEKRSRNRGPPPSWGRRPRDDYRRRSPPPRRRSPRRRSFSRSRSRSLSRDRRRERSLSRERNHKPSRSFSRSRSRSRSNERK
UniProt P49458: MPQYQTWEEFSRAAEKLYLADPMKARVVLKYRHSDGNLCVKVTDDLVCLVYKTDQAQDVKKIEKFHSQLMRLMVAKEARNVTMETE
UniProt Q9UQ35: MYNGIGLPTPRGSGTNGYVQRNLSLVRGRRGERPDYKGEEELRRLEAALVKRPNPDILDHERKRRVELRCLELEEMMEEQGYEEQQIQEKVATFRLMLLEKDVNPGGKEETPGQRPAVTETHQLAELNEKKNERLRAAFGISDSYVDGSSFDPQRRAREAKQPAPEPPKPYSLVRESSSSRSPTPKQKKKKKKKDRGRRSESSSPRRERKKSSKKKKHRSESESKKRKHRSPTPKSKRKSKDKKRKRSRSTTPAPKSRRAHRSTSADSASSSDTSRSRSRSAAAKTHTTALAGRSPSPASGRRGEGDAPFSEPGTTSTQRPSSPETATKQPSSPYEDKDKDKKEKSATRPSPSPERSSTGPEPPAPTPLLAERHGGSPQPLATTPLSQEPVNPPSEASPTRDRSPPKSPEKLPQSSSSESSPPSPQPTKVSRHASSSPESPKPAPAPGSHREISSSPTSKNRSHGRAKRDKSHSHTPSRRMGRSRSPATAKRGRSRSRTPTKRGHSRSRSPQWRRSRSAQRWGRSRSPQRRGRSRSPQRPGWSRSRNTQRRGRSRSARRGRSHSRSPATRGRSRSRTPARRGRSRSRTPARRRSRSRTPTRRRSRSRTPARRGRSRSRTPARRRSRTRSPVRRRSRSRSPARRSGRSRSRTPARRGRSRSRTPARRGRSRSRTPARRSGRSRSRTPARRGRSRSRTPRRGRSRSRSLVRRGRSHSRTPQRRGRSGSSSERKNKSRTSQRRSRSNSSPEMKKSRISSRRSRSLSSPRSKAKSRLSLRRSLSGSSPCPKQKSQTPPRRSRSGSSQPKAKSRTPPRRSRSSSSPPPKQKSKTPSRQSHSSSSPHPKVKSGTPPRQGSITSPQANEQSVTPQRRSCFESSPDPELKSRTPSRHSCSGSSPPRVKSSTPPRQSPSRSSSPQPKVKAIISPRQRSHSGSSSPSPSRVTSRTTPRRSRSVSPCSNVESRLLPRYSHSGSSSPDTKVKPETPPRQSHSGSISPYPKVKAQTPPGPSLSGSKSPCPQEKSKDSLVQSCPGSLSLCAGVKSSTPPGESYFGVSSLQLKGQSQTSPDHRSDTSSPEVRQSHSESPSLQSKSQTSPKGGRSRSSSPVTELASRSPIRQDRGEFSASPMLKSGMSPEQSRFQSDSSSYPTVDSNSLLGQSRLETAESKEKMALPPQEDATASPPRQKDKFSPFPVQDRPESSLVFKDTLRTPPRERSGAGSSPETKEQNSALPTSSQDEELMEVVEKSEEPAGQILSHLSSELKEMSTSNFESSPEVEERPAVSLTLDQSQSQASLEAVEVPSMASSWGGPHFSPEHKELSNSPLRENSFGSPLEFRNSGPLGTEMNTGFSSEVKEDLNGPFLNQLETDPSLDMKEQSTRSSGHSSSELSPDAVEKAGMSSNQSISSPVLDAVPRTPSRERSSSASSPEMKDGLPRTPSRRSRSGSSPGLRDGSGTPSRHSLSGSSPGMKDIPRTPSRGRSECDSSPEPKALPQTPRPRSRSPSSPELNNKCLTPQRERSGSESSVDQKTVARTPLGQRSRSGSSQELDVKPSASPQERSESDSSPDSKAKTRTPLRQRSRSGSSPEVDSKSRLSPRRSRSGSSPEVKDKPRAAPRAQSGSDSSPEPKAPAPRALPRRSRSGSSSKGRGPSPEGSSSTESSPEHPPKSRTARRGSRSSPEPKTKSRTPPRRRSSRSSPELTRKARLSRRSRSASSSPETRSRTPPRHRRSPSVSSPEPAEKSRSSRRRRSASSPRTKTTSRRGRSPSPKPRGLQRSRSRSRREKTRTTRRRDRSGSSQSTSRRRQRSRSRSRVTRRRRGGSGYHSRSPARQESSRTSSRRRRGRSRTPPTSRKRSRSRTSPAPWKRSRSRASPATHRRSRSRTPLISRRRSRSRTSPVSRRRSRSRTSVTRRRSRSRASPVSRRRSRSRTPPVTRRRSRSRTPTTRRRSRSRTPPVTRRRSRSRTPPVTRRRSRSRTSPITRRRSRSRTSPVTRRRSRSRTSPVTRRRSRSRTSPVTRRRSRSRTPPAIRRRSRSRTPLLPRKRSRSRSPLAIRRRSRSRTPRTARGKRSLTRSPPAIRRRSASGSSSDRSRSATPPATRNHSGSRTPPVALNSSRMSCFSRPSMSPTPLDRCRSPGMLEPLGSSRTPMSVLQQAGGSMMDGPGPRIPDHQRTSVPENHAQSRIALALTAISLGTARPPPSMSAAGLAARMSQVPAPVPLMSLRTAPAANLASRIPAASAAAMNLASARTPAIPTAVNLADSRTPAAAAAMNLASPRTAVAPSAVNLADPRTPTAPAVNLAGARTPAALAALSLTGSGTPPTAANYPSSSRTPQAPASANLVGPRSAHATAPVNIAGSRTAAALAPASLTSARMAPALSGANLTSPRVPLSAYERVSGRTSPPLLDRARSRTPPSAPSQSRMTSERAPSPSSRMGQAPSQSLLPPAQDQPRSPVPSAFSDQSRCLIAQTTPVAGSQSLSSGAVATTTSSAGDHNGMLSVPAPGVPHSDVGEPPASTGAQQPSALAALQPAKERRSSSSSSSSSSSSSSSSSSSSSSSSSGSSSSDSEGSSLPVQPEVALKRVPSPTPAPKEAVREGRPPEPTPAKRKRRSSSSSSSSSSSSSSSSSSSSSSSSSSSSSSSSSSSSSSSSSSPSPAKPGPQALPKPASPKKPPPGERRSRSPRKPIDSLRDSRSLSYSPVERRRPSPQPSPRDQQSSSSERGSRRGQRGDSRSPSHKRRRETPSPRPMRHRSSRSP
UniProt Q9Y5M8: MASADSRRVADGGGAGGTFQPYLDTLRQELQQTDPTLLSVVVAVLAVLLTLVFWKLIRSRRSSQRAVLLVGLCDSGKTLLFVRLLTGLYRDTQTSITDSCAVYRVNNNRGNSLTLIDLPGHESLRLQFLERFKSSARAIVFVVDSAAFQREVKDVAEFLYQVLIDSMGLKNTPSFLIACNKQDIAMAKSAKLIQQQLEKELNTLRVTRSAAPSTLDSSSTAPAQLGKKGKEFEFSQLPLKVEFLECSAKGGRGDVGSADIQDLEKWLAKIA
UniProt Q9H2V7: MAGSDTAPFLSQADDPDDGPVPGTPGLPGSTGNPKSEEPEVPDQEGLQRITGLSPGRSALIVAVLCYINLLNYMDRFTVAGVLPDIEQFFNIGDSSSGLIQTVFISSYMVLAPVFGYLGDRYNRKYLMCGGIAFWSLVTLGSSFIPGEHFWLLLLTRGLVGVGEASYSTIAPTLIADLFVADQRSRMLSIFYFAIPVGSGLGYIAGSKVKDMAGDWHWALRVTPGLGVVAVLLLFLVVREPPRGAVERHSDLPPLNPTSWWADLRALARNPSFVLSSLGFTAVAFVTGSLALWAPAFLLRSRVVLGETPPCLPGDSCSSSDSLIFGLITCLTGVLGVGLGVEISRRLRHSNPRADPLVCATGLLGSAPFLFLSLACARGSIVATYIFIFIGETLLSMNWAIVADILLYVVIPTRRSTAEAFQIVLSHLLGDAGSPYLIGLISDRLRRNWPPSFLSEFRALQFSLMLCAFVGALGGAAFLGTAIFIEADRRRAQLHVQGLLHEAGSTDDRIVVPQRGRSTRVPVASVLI
UniProt Q9NZD8: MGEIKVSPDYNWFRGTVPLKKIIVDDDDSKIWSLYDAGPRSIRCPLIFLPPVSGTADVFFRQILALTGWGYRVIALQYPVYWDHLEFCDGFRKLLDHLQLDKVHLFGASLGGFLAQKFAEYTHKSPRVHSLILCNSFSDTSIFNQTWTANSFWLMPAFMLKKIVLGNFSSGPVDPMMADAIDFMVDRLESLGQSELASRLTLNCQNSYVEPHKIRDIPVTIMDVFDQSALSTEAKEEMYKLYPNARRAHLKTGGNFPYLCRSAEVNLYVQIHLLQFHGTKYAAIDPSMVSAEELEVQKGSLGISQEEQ
UniProt O15270: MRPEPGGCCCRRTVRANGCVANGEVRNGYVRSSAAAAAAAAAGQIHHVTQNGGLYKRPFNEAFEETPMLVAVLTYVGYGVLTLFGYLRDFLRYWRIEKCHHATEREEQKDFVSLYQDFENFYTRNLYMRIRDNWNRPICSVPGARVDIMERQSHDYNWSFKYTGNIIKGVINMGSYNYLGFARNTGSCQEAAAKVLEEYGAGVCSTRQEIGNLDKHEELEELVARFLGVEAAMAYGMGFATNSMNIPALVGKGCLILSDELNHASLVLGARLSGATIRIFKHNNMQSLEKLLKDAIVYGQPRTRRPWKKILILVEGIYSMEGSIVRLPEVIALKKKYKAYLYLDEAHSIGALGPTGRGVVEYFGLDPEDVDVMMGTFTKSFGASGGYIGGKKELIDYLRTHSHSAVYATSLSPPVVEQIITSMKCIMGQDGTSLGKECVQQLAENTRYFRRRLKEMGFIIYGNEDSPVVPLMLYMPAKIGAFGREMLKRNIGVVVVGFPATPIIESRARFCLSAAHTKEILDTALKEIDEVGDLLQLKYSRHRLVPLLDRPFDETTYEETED
UniProt Q9C004: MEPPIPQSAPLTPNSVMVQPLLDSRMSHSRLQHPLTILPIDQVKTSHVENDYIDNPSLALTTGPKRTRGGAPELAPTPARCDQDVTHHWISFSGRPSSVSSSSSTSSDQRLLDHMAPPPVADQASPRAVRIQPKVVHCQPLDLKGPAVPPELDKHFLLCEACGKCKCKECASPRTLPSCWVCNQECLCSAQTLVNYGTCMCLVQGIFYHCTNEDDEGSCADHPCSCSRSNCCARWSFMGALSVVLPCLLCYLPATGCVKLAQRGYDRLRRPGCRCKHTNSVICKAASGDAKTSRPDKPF
UniProt Q5W111: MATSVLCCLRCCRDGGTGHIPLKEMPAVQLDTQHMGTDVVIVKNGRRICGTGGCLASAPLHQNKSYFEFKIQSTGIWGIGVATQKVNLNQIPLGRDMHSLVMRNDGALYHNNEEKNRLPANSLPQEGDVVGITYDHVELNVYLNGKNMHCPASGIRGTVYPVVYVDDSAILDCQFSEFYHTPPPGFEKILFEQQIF
UniProt P51692: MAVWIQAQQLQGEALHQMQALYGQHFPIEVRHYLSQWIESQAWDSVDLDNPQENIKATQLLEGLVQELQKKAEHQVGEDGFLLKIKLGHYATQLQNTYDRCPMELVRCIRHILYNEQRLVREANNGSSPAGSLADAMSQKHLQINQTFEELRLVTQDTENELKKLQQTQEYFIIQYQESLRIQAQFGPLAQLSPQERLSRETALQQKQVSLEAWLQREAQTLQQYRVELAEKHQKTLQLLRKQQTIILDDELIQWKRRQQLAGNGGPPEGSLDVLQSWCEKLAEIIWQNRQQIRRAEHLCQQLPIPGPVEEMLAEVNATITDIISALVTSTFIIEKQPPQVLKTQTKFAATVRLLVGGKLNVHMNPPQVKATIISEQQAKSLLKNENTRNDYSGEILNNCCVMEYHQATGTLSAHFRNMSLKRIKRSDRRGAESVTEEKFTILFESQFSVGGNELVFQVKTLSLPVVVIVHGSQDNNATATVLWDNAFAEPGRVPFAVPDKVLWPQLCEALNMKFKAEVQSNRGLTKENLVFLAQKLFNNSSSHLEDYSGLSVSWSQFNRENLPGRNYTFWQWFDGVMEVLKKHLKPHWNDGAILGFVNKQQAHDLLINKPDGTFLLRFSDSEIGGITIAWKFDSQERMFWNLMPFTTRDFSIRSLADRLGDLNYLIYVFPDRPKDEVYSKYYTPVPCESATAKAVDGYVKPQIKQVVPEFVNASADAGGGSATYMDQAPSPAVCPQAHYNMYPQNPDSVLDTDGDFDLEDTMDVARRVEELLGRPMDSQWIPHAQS

Columns and labels:
Assay in all cases: log2 fold change, soluble protein after heating vs DMSO (PISA); higher = thermal stabilisation; K562 lysate, 10 uM; active = over 0.2 and 3.5 SD of the protein, either way, in both replicates (recomputed)
[1] = compound: C#Cc1cccc(Nc2ncnc3cc(OCCOC)c(OCCOC)cc23)c1 [erlotinib]
Summary of the method: (§1)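 Thermal stability, expressed as log-two fold change relative to solvent controls, is given from duplicates. Crude K562 extract in PBS pH 7.4 with 1 mM MgCl2, at 1 mg/mL protein, was treated with 10 μM compound for 30 min and heated in aliquots for 3 min across 48°C-58°C. After pooling, adjustment to 0.5% NP-40 at 4°C and centrifugation at 21,000xg for 90 min, supernatant protein was measured by TMTpro 16plex LC-MS/MS with channel sums equalised.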

[2] = compound: C/C(=N\NC(=O)C1=CC(=CC=C1)S(=O)(=O)N2CCOCC2)/C3=C(C=CC(=C3)Cl)O
Summary of the method: as §1

[3] = compound: C1=CC(=CC=C1C2=NC3=C(N2)C=C(C=C3)C(=O)N)OC4=CC=C(C=C4)Cl
Summary of the method: as §1

[4] = compound: C1=CC2=C(C=CC(=C2)/C=C\3/C(=O)NC(=NCC4=CC=CS4)S3)N=C1
Summary of the method: as §1

[5] = compound: C1=CC2=NC=CN=C2C=C1/C=C/3\C(=O)NC(=O)S3
Summary of the method: as §1

[6] = compound: C1=CC=C(C=C1)C2=NC(=C(N2)C3=CC=NC=C3)C4=CC(=C(C=C4)Cl)O
Summary of the method: as §1

[7] = compound: C1=CC=C2C(=C1)C3=NNC4=CC=CC(=C43)C2=O
Summary of the method: as §1

[8] = compound: C1CCN(C1)C(=O)NC2=CC=CC(=C2)NC3=NC=C(C(=N3)NCCC4=CN=CN4)Br
Summary of the method: as §1

[9] = compound: C1CN(CCC1(CC2=CC=C(C=C2)Cl)N)C3=NC=NC4=C3C=CN4
Summary of the method: as §1

[10] = compound: C1COCCN1CCN2C3=CC=CC=C3N=C2NC(=O)C4=CC(=CC=C4)[N+](=O)[O-] [IRAK-1-4 Inhibitor I]
Summary of the method: as §1

Measured: log2 fold change

SSR3 isoform 2 (UniProt Q9UNL2)
inactive: [1] -0.048 | [2] 0.008 | [3] -0.057 | [4] 0.027 | [5] 0.021 | [6] -0.002 | [7] 0.089 | [8] -0.002 | [9] -0.018 | [10] -0.163

SSB (UniProt E7ERC4)
inactive: [1] -0.03 | [2] 0.071 | [3] -0.063 | [4] 0 | [5] 0.02 | [6] 0.015 | [7] -0.142 | [8] 0.089 | [9] 0.01 | [10] -0.043

SSRP1 (UniProt Q08945)
inactive: [1] -0.024 | [2] -0.021 | [3] 0 | [4] 0.01 | [5] -0.026 | [6] -0.02 | [7] 0.009 | [8] 0.021 | [9] -0.017 | [10] -0.03

SRGAP2 (UniProt O75044)
inactive: [1] 0.006 | [2] 0.005 | [3] 0.021 | [4] 0.002 | [5] 0.012 | [6] 0.013 | [7] 0.026 | [8] -0.007 | [9] -0.012 | [10] -0.011

SSBP3 (UniProt Q9BWW4)
inactive: [1] 0.038 | [2] -0.09 | [3] 0.004 | [4] 0.026 | [5] 0.129 | [6] -0.048 | [7] 0.018 | [8] -0.054 | [9] 0.013 | [10] 0.041

SPECC1L (UniProt Q69YQ0)
inactive: [1] -0.006 | [2] -0.009 | [3] 0.026 | [4] 0.009 | [5] 0.006 | [6] -0.005 | [7] -0.038 | [8] 0 | [9] 0.09 | [10] 0.028

SSX2 (UniProt Q16385)
inactive: [1] -0.004 | [2] 0.177 | [3] 0.024 | [4] -0.001 | [5] -0.034 | [6] 0.011 | [7] -0.006 | [8] -0.056 | [9] -0.054 | [10] -0.024

SRSF3 (UniProt P84103)
inactive: [1] -0.006 | [2] 0.038 | [3] -0.063 | [4] -0.026 | [5] 0.005 | [6] 0.022 | [7] 0.037 | [8] 0.02 | [9] -0.042 | [10] 0.003

STAT2 (UniProt P52630)
inactive: [1] -0.009 | [2] 0.033 | [3] -0.102 | [4] -0.01 | [5] 0.034 | [6] 0.003 | [7] -0.032 | [8] 0.002 | [9] 0.018 | [10] -0.018

SPTA1 (UniProt P02549)
inactive: [1] -0.005 | [2] 0.033 | [3] -0.043 | [4] -0.015 | [5] 0.024 | [6] 0.016 | [7] 0.004 | [8] 0.006 | [9] 0.016 | [10] -0.01

SRSF2 (UniProt Q01130)
inactive: [1] 0.005 | [2] 0.041 | [3] 0.026 | [4] -0.038 | [5] -0.018 | [6] -0.017 | [7] -0.031 | [8] 0.023 | [9] -0.037 | [10] 0.04

Random excerpt: 2 records from the list.
SRSF2 (UniProt Q01130)
inactive: [1] 0.005 | [2] 0.041 | [3] 0.026 | [4] -0.038 | [5] -0.018 | [6] -0.017 | [7] -0.031 | [8] 0.023 | [9] -0.037 | [10] 0.04

SRSF3 (UniProt P84103)
inactive: [1] -0.006 | [2] 0.038 | [3] -0.063 | [4] -0.026 | [5] 0.005 | [6] 0.022 | [7] 0.037 | [8] 0.02 | [9] -0.042 | [10] 0.003

(continued)

SRP9 (UniProt P49458)
inactive: [1] -0.034 | [2] 0.013 | [3] 0.021 | [4] 0.004 | [5] -0.002 | [6] -0.008 | [7] 0.038 | [8] 0.015 | [9] -0.007 | [10] 0

SRRM2 (UniProt Q9UQ35)
inactive: [1] -0.024 | [2] -0.108 | [3] 0.03 | [4] 0.036 | [5] -0.087 | [6] -0.005 | [7] -0.019 | [8] -0.007 | [9] -0.002 | [10] 0

SQSTM1 (UniProt Q13501)
inactive: [1] 0.04 | [2] 0.036 | [3] 0.004 | [4] -0.033 | [5] 0.034 | [6] -0.013 | [7] -0.037 | [8] -0.023 | [9] -0.025 | [10] 0.006

SPART (UniProt Q8N0X7)
inactive: [1] -0.018 | [2] -0.06 | [3] 0.11 | [4] 0.037 | [5] -0.062 | [6] -0.006 | [7] 0.053 | [8] -0.026 | [9] -0.055 | [10] 0

SRPRB (UniProt Q9Y5M8)
inactive: [1] -0.004 | [2] 0.029 | [3] 0.021 | [4] -0.011 | [5] -0.041 | [6] -0.003 | [7] -0.021 | [8] -0.053 | [9] -0.035 | [10] -0.033

SRSF10 (UniProt O75494)
inactive: [1] 0.055 | [2] 0 | [3] -0.014 | [4] -0.091 | [5] 0.041 | [6] -0.021 | [7] 0.027 | [8] 0.045 | [9] 0.004 | [10] -0.015

SPNS1 (UniProt Q9H2V7)
inactive: [1] 0.015 | [2] -0.043 | [3] -0.02 | [4] 0.043 | [5] -0.031 | [6] 0.029 | [7] -0.063 | [8] 0 | [9] 0.044 | [10] 0.032

SRGN (UniProt P10124)
inactive: [1] -0.034 | [2] 0.023 | [3] 0.051 | [4] -0.019 | [5] 0.05 | [6] 0.051 | [7] -0.069 | [8] 0.065 | [9] -0.139 | [10] 0.013

SPG21 (UniProt Q9NZD8)
inactive: [1] 0 | [2] 0.069 | [3] 0.009 | [4] -0.094 | [5] -0.007 | [6] 0.01 | [7] -0.045 | [8] -0.039 | [9] 0.01 | [10] 0.023

SPTLC2 (UniProt O15270)
inactive: [1] -0.017 | [2] 0.053 | [3] 0.034 | [4] -0.031 | [5] 0.002 | [6] -0.026 | [7] -0.019 | [8] -0.024 | [9] 0.008 | [10] 0.045

SPTBN4 (UniProt Q9H254)
inactive: [1] -0.027 | [2] 0.009 | [3] -0.042 | [4] 0.083 | [5] 0.286 | [6] -0.112 | [7] -0.141 | [8] -0.085 | [9] 0.019 | [10] 0.029

SRR (UniProt Q9GZT4)
inactive: [1] -0.046 | [2] 0.044 | [3] 0.078 | [4] 0.045 | [5] -0.007 | [6] 0.058 | [7] -0.026 | [8] 0.058 | [9] -0.025 | [10] 0.05

STAT5A (UniProt P42229)
inactive: [1] 0.035 | [2] 0.024 | [3] -0.018 | [4] 0.036 | [5] 0.011 | [6] 0.02 | [7] 0.001 | [8] -0.003 | [9] 0.05 | [10] 0.005

SPRY4 (UniProt Q9C004)
inactive: [1] -0.012 | [2] 0.096 | [3] 0.002 | [4] -0.017 | [5] 0 | [6] 0.004 | [7] -0.021 | [8] 0.045 | [9] -0.002 | [10] 0.038

SPRYD7 (UniProt Q5W111)
inactive: [1] 0.034 | [2] 0.063 | [3] -0.008 | [4] 0.007 | [5] -0.039 | [6] -0.013 | [7] -0.014 | [8] 0 | [9] 0.038 | [10] -0.013

SSR1 (UniProt P43307)
inactive: [1] -0.038 | [2] -0.046 | [3] -0.023 | [4] 0.038 | [5] -0.007 | [6] -0.019 | [7] 0.021 | [8] 0.006 | [9] 0.017 | [10] -0.014

STAT5B (UniProt P51692)
inactive: [1] 0.023 | [2] -0.019 | [3] -0.006 | [4] -0.043 | [5] 0.038 | [6] 0.014 | [7] -0.027 | [8] 0 | [9] 0.026 | [10] 0.015
